Data taken from the supplement of paper PMC8728848.
Some of the results follow.

Legend:
Assay in all cases: glycan array binding signal (z-score within array); higher = stronger binding
Details in all cases: glycan notation: IUPAC condensed, linker removed
[1] = target: Neu5Ac(a2-6)Gal(b1-4)GlcNAc(b1-2)Man(a1-3)[Man(a1-6)]Man(b1-4)GlcNAc(b1-4)GlcNAc
Method in brief: (§1)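 Arrays were curated from the Consortium for Functional Glycomics database, 3228 in total, and kept only where the protein sequence was available. Binding is expressed as a within-array Z-score. This score was averaged across arrays of the same protein sequence at different concentrations or buffers and across linkers, and negative values can be read as non-binding.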

[2] = target: Neu5Ac(a2-6)Gal(b1-4)GlcNAc(b1-2)Man(a1-3)[Neu5Ac(a2-3)Gal(b1-4)GlcNAc(b1-2)Man(a1-6)]Man(b1-4)GlcNAc(b1-4)GlcNAc
Method in brief: as §1

[3] = target: Neu5Ac(a2-6)Gal(b1-4)GlcNAc(b1-2)Man(a1-3)[Neu5Ac(a2-6)Gal(b1-4)GlcNAc(b1-2)Man(a1-6)]Man(b1-4)GlcNAc(b1-4)GlcNAc
Method in brief: as §1

[4] = target: Neu5Ac(a2-6)Gal(b1-4)GlcNAc(b1-2)Man(a1-3)[Neu5Ac(a2-6)Gal(b1-4)GlcNAc(b1-2)Man(a1-6)]Man(b1-4)GlcNAc(b1-4)[Fuc(a1-6)]GlcNAc
Method in brief: as §1

[5] = target: Neu5Ac(a2-6)Gal(b1-4)GlcNAc(b1-2)Man(a1-6)Man(b1-4)GlcNAc(b1-4)GlcNAc
Method in brief: as §1

[6] = target: Neu5Ac(a2-6)Gal(b1-4)GlcNAc(b1-2)Man(a1-6)[Gal(b1-4)GlcNAc(b1-2)Man(a1-3)]Man(b1-4)GlcNAc(b1-4)GlcNAc
Method in brief: as §1

[7] = target: Neu5Ac(a2-6)Gal(b1-4)GlcNAc(b1-2)Man(a1-6)[GlcNAc(b1-2)Man(a1-3)]Man(b1-4)GlcNAc(b1-4)GlcNAc
Method in brief: as §1

[8] = target: Neu5Ac(a2-6)Gal(b1-4)GlcNAc(b1-2)Man(a1-6)[Man(a1-3)]Man(b1-4)GlcNAc(b1-4)GlcNAc
Method in brief: as §1

[9] = target: Neu5Ac(a2-6)Gal(b1-4)GlcNAc(b1-2)[Neu5Ac(a2-6)Gal(b1-4)GlcNAc(b1-4)]Man(a1-3)[GlcNAc(b1-4)][Neu5Ac(a2-6)Gal(b1-4)GlcNAc(b1-2)[Neu5Ac(a2-6)Gal(b1-4)GlcNAc(b1-6)]Man(a1-6)]Man(b1-4)GlcNAc(b1-4)GlcNAc
Method in brief: as §1

[10] = target: Neu5Ac(a2-6)Gal(b1-4)GlcNAc(b1-2)[Neu5Ac(a2-6)Gal(b1-4)GlcNAc(b1-4)]Man(a1-3)[GlcNAc(b1-4)][Neu5Ac(a2-6)Gal(b1-4)GlcNAc(b1-4)Man(a1-6)]Man(b1-4)GlcNAc(b1-4)GlcNAc
Method in brief: as §1

[11] = target: Neu5Ac(a2-6)Gal(b1-4)GlcNAc(b1-2)[Neu5Ac(a2-6)Gal(b1-4)GlcNAc(b1-6)]Man(a1-6)[Neu5Ac(a2-6)Gal(b1-4)GlcNAc(b1-2)Man(a1-3)][GlcNAc(b1-4)]Man(b1-4)GlcNAc(b1-4)GlcNAc
Method in brief: as §1

[12] = target: Neu5Ac(a2-6)Gal(b1-4)GlcNAc(b1-3)Gal(b1-3)GlcNAc
Method in brief: as §1

[13] = target: Neu5Ac(a2-6)Gal(b1-4)GlcNAc(b1-3)Gal(b1-4)GlcNAc
Method in brief: as §1

[14] = target: Neu5Ac(a2-6)Gal(b1-4)GlcNAc(b1-3)Gal(b1-4)GlcNAc(b1-2)Man(a1-3)[Neu5Ac(a2-6)Gal(b1-4)GlcNAc(b1-3)Gal(b1-4)GlcNAc(b1-2)Man(a1-6)]GalNAc
Method in brief: as §1

[15] = target: Neu5Ac(a2-6)Gal(b1-4)GlcNAc(b1-3)Gal(b1-4)GlcNAc(b1-3)Gal(b1-4)GlcNAc
Method in brief: as §1

[16] = target: Neu5Ac(a2-6)Gal(b1-4)GlcNAc(b1-3)Gal(b1-4)GlcNAc(b1-3)Gal(b1-4)GlcNAc(b1-2)Man(a1-3)[Neu5Ac(a2-6)Gal(b1-4)GlcNAc(b1-3)Gal(b1-4)GlcNAc(b1-3)Gal(b1-4)GlcNAc(b1-2)Man(a1-6)]GalNAc
Method in brief: as §1

[17] = target: Neu5Ac(a2-6)Gal(b1-4)GlcNAc(b1-3)Gal(b1-4)GlcNAc(b1-3)GalNAc
Method in brief: as §1

[18] = target: Neu5Ac(a2-6)Gal(b1-4)GlcNAc(b1-3)Gal(b1-4)GlcNAc(b1-3)[Neu5Ac(a2-6)Gal(b1-4)GlcNAc(b1-3)Gal(b1-4)GlcNAc(b1-6)]GalNAc
Method in brief: as §1

[19] = target: Neu5Ac(a2-6)Gal(b1-4)GlcNAc(b1-3)Gal(b1-4)GlcNAc(b1-6)[Gal(b1-3)]GalNAc
Method in brief: as §1

[20] = target: Neu5Ac(a2-6)Gal(b1-4)GlcNAc(b1-3)Gal(b1-4)[Fuc(a1-3)]GlcNAc(b1-3)Gal(b1-4)[Fuc(a1-3)]GlcNAc
Method in brief: as §1

[21] = target: Neu5Ac(a2-6)Gal(b1-4)GlcNAc(b1-3)GalNAc
Method in brief: as §1

[22] = target: Neu5Ac(a2-6)Gal(b1-4)GlcNAc(b1-3)[Neu5Ac(a2-6)Gal(b1-4)GlcNAc(b1-6)]GalNAc
Method in brief: as §1

[23] = target: Neu5Ac(a2-6)Gal(b1-4)GlcNAc(b1-6)GalNAc
Method in brief: as §1

[24] = target: Neu5Ac(a2-6)Gal(b1-4)GlcNAc(b1-6)[Gal(b1-3)GlcNAc(b1-3)]Gal(b1-4)Glc
Method in brief: as §1

[25] = target: Neu5Ac(a2-6)Gal(b1-4)GlcNAc(b1-6)[Gal(b1-3)]GalNAc
Method in brief: as §1

[26] = target: Neu5Ac(a2-6)Gal(b1-4)GlcNAc6S
Method in brief: as §1

Neu5Ac(a2-6)GalNAc = target: Neu5Ac(a2-6)GalNAc
Method in brief: as §1

[27] = target: Neu5Ac(a2-6)GalNAc(b1-4)GlcNAc
Method in brief: as §1

[28] = target: Neu5Ac(a2-6)GalNAc(b1-4)GlcNAc6S
Method in brief: as §1

[29] = target: Neu5Ac(a2-6)GlcNAc(b1-4)GlcNAc
Method in brief: as §1

[30] = target: Neu5Ac(a2-6)GlcNAc(b1-4)GlcNAc(b1-4)GlcNAc
Method in brief: as §1

B1: Epa21 (Candida glabrata) (protein)
chain: MGSSHHHHHHSSGLVPRGSHMASTPNIESHPQGCSPVDTSGIKPGLKMDLYRFPITPPGTGCWSWDWLTVTPDFPRSGYWKWPKIAEVDGVVGPLHLDSGHPTCDPLTSVLPHGFNYLQSITTTNFTMVLHGYFVPKQSGKYTFEFKADDALLLNLGAGNAFSCCDYNNSQYNQGEYLAYAIWSKNNQTATLYLEKGIYYPIRVFYHNRCCGAYMDVVYYFNDSPIPNRDFSGLLFSIPDSDSCDANI
- glycan array binding signal (z-score) [1]: 0.077
- glycan array binding signal (z-score) [2]: 0.205
- glycan array binding signal (z-score) [3]: -0.266
- glycan array binding signal (z-score) [4]: 0.072
- glycan array binding signal (z-score) [5]: -0.384
- glycan array binding signal (z-score) [6]: -0.251
- glycan array binding signal (z-score) [7]: -0.103
- glycan array binding signal (z-score) [8]: -0.363
- glycan array binding signal (z-score) [9]: 0.521
- glycan array binding signal (z-score) [10]: 0.007
- glycan array binding signal (z-score) [11]: -0.124
- glycan array binding signal (z-score) [12]: 0.285
- glycan array binding signal (z-score) [13]: -0.589
- glycan array binding signal (z-score) [14]: 2.55
- glycan array binding signal (z-score) [15]: 0.2
- glycan array binding signal (z-score) [16]: 5.42
- glycan array binding signal (z-score) [17]: -0.315
- glycan array binding signal (z-score) [18]: 0.243
- glycan array binding signal (z-score) [19]: 0.258
- glycan array binding signal (z-score) [20]: -0.189
- glycan array binding signal (z-score) [21]: 0.17
- glycan array binding signal (z-score) [22]: 0.483
- glycan array binding signal (z-score) [23]: 1.06
- glycan array binding signal (z-score) [24]: -0.363
- glycan array binding signal (z-score) [25]: 0.521
- glycan array binding signal (z-score) [26]: 0.063
- glycan array binding signal (z-score) (Neu5Ac(a2-6)GalNAc): -0.255
- glycan array binding signal (z-score) [27]: -0.642
- glycan array binding signal (z-score) [28]: -0.594
- glycan array binding signal (z-score) [29]: -0.441
- glycan array binding signal (z-score) [30]: -0.334
